Source: US10202364B2, “Forms and compositions of an ERK inhibitor” (Celgene CAR LLC, priority 2014, dated 2019)
Some results were stated once for a whole list of compounds, not compound by compound.

Experiment: Single oral dose pharmacokinetic (PK) study in dogs, fasted and fed
Format: in vivo
Details: 15 mg/kg oral; for increase of mean systemic exposure (AUClast) compared to Compound 1: range stated for compounds 2, 4, 5 and 6 together; for food effect: increase of systemic exposure under fed as compared to fasted conditions: range stated for compounds 1, 2, 4, 5 and 6 together
Description: The pharmacokinetics of compound 1 (free base, administered to dosing group 1), compound 2 (phosphate salt, administered to dosing group 4), compound 4 (hydrochloride salt, administered to dosing group 2), compound 5 (bromide salt, administered to dosing group 5), and compound 6 (sulfate salt, administered to dosing group 3) were evaluated in dogs (2/sex/group) in a parallel design study. In addition, the effect of food on the systemic exposure to compounds 1, 2, 4, 5 and 6 was also evaluated. Compounds 1, 2, 4, 5 and 6 were orally administered at 15 mg/kg to dogs in a fasted state (overnight fast) on day 1 and administered under fed conditions (a meal was provided one hour prior to dosing) on day 9. Doses were administered as a suspension in 5% Captisol/0.2% Tween 80/0.05M Citrate buffer (compound 1) and 5% Captisol/0.2% Tween (compounds 2, 4, 5 and 6). Animals were habituated (days 2 to 8) to consume their entire daily ration (˜400 g) in 1 hour. Pharmacokinetic samples were collected on days 1 and 9 at 0, 0.5, 1, 2, 4, 6, 8, 12, and 24 hours after dosing.

SMILES	increase of mean systemic exposure (AUClast) compared to Compound 1 (fasted)	increase of mean systemic exposure (AUClast) compared to Compound 1 (fed)	food effect: increase of systemic exposure under fed as compared to fasted conditions
C=CC(=O)Nc1cc(C)ccc1Nc1nc(Nc2cc(OC)ncc2C)ncc1C(F)(F)F.Cl [Compound 4]	3- to 6 fold	2- to 3 fold	3- to 7 fold
C=CC(=O)Nc1cc(C)ccc1Nc1nc(Nc2cc(OC)ncc2C)ncc1C(F)(F)F [Compound 1, N-(2-((2-((2-methoxy-5-methylpyridin-4-yl)amino)-5-(trifluoromethyl)pyrimidin-4-yl)amino)-5-methylphenyl)acrylamide]			3- to 7 fold
C=CC(=O)Nc1cc(C)ccc1Nc1nc(Nc2cc(OC)ncc2C)ncc1C(F)(F)F.O=P(O)(O)O [Compound 2]	3- to 6 fold	2- to 3 fold	3- to 7 fold
C=CC(=O)Nc1cc(C)ccc1Nc1nc(Nc2cc(OC)ncc2C)ncc1C(F)(F)F [Compound 6]	3- to 6 fold	2- to 3 fold	3- to 7 fold
Br.C=CC(=O)Nc1cc(C)ccc1Nc1nc(Nc2cc(OC)ncc2C)ncc1C(F)(F)F [Compound 5]	3- to 6 fold	2- to 3 fold	3- to 7 fold
